Assay results published in paper PMC9239104, “Scaffolding Protein GspB/OutB Facilitates Assembly of the Dickeya dadantii Type 2 Secretion System by Anchoring the Outer Membrane Secretin Pore to the Inner Membrane and to the Peptidoglycan Cell Wall” (mBio, 2022).
These are yes or no findings as the source states them, for the method shown. Binding seen in cells or lysates may run through a third protein. Some binding calls cover weakened binding; strength is not graded here. For part of these data: Sequences can lack the tags named with a protein.

By UniProt entry, the sequences of proteins in these tests, tags left out. Where a name states a change or a piece, a line headed by the entry shows the natural chain unless it says otherwise. Residues count along the entry.
UniProt Q01565: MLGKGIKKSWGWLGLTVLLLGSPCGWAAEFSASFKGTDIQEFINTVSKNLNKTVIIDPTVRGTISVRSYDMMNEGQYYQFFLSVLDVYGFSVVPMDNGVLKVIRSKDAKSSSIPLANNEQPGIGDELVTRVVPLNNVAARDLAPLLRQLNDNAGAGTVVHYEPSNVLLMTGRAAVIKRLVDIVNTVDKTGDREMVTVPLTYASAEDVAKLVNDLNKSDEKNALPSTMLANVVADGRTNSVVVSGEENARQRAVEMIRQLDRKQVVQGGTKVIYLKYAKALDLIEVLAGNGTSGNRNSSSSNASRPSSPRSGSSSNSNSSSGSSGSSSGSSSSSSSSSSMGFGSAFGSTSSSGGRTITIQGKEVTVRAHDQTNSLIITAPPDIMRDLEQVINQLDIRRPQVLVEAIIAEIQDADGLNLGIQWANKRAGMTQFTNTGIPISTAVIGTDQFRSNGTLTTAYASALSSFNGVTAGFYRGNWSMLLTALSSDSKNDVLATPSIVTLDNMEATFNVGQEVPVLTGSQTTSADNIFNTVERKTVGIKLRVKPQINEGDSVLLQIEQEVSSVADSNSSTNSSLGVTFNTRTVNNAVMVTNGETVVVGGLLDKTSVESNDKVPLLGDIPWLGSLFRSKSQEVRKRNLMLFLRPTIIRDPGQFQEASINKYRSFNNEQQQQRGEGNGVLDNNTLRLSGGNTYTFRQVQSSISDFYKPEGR
Secretin OutD (GspD), full-length: residues 28-710 of Q01565

How the values were obtained:
[1] = target: Secretin OutD (GspD), full-length (Dickeya dadantii) (UniProt Q01565); test: co-sedimentation; membranes of E. coli MC3/pREP4 carrying DBS-derived plasmids, French press, discontinuous 35%-to-65% sucrose gradient, 48,000 rpm 70 h; fractions immunoblotted
[2] = target: GST-tagged HR domain of OutB (residues P112 to G192) (Dickeya dadantii) (UniProt Q01563); test: pull-down; GST-OutB domains coexpressed with OutD N-terminal domains from the same plasmid in E. coli BL21(DE3); cell extract in TSE buffer (50 mM Tris-HCl pH 8.0, 100 mM NaCl, 1 mM EDTA, 1 mM PMSF) with 0.1% Triton X-100 on glutathione agarose, six washes; SDS-PAGE, Coomassie or anti-OutD blot
[3] = target: T1, GST-tagged C-terminal portion of OutB, consisting of the HR and CTE (residues P112 to K220) (Dickeya dadantii) (UniProt Q01563); test: as above
T1 sequence: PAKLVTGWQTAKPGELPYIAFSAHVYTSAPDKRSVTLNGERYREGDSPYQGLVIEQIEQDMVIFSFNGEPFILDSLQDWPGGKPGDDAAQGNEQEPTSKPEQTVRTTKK

Substance | binding [1] | binding [2] | binding [3]
OutB (GspB), full-length (from UniProt Q01563 1-220) | binds | – | –
OutD N0 domain (residues A1 to S85), pull-down construct (from UniProt Q01565 28-112) (domain or fragment) | – | binds | binds
